No constants are given. Whether binding was seen depends on the method and setting. Binding seen in cells or lysates may run through a third protein. A yes stands for co-enrichment or nearness to the bait. Other partners may have been found.
Target: T1, chaperonin containing TCP1 subunit 3 (CCT3) (human (endogenous in 97L and LM3)) (UniProt P49368)
T1 sequence: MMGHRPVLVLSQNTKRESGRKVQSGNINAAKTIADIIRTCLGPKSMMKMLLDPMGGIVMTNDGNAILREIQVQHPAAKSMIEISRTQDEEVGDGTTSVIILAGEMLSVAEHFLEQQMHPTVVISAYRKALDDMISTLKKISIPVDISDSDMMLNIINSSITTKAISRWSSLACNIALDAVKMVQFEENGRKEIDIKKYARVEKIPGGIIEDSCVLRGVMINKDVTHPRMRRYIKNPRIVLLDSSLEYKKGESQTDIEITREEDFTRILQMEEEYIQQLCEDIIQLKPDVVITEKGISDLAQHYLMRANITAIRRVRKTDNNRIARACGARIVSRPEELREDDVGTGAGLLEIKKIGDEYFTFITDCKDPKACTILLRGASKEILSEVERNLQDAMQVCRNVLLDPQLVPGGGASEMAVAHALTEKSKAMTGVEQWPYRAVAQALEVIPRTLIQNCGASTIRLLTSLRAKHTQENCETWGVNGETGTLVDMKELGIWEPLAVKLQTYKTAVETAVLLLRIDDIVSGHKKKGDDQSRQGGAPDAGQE
Test: affinity purification with mass spectrometry

Chains of the proteins cited; added tags and fusions are not shown.
UniProt P48643: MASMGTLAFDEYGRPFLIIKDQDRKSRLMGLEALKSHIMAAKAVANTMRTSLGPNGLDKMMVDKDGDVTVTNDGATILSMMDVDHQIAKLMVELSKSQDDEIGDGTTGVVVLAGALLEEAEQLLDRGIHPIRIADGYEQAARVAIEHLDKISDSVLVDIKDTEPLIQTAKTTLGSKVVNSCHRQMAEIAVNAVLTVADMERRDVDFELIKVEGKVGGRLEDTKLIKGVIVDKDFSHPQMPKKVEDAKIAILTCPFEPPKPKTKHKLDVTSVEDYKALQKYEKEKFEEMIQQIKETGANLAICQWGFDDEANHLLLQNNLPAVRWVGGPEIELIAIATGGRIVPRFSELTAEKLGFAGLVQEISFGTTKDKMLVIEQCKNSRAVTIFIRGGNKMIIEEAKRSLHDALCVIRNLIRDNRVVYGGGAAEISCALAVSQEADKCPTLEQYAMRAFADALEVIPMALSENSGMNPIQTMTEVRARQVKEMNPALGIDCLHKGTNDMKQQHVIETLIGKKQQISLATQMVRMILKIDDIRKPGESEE
UniProt O43707: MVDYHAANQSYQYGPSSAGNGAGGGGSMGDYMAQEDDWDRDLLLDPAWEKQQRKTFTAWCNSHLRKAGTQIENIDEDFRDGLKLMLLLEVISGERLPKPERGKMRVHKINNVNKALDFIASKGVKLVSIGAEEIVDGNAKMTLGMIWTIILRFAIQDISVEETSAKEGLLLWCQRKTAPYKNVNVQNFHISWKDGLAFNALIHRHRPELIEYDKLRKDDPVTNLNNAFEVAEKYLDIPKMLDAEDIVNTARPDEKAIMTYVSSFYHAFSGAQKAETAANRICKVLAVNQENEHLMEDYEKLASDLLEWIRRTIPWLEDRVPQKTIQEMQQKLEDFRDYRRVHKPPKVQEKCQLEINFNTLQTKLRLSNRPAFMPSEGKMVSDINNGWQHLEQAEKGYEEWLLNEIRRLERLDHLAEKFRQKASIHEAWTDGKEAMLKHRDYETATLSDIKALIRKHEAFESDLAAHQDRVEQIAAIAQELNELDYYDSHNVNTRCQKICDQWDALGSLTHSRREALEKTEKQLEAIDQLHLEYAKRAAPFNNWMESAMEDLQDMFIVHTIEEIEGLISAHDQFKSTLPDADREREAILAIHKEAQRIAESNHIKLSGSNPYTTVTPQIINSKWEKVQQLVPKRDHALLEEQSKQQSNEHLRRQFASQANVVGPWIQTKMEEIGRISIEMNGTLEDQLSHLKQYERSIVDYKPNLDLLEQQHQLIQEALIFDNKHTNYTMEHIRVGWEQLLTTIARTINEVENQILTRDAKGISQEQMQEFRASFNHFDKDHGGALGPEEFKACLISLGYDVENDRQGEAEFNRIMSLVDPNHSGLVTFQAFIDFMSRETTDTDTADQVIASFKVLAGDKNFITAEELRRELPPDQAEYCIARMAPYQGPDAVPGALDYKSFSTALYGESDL

Row | Substance | binding
1 | CCT5 (from UniProt P48643 1-541) | binds
2 | alpha-actinin-4 (ACTN4) (from UniProt O43707 1-911) | binds
